Results of single-concentration screens

Data taken from ChEMBL document CHEMBL3988442, “University of Dundee, Small-Polar-MMV Screening Library” (2021).

Mtb glucose medium: 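Growth of Mycobacterium tuberculosis over 3 days (7H9 medium with glucose and tyloxapol); the read-out is not stated. Concentration: 50 µM. Higher reads as more growth inhibition (inferred: compounds with an IC50 in retests scored well above the rest). Of about 69,000 compounds tested this way, about 760 (1.1%) reached 50% or more in at least one test.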
Mtb cholesterol medium: 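Phenotypic screen: M. tuberculosis growth, cholesterol and DPPC medium, 4 days; the read-out is not stated. Tested at 50 µM. The record gives no direction; compounds that gave an IC50 in retests scored well above the rest, so higher reads as more growth inhibition. About 69,000 compounds were tested under these conditions; 0.54% (about 370) showed 50% or more at least once.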

Values are the deposited “Percent Effect”, in %.
The record does not define 0% and 100%; most values in the screen are far below 50% and negative numbers occur (in some assays of this library far below -100).
The compounds are a random part of those screened.
Two or more numbers in one place are separate tests of the same structure; such repeats can differ widely.

| # | structure | Mtb glucose medium | Mtb cholesterol medium |
|---|---|---|---|
| 1 | `Clc1cc(NCc2ccncc2)nc2[nH]ccc12` | -8.731% | 1.516% |
| 2 | `Cc1nc(CN2CCC3(C2)CN(C(=O)c2conc2C)C3)cs1` | -1.574% | -8.948% |
| 3 | `Cc1nc(C(=O)N2CCN(C(C)c3ccccc3F)CC2)cs1` (centres unmarked) | -21.17% | 7.597% & -2.31% |
| 4 | `NC(=O)COc1cccc(CN2CCc3cncnc3C2)c1` | 13.49% & -28.73% | -5.459% |
| 5 | `O=C(O)C(F)(F)F.[H][C@@]12CCN(C3CCCC3)C[C@]1(C(=O)NCc1cnc(C)cn1)CCO2` | 13.56% | -0.1381% |
| 6 | `Cn1cc(C(=O)NCC2CCN(C(=O)NCC(F)(F)F)CC2)cn1` | -0.8249% | -12.59% |
| 7 | `CCc1ccccc1CN1CCC(N2CCCC2=O)CC1` | 17.26% | -13.38% |
| 8 | `Cn1c(SCC(O)COCc2ccccc2Cl)nnc1C1CC1` (centres unmarked) | 28.16% | -2.717% |
| 9 | `Cl.Cl.OC(CN1CCN(Cc2ccccc2)CC1)C1CC1` (centres unmarked) | 6.549% | 15.91% |
| 10 | `CC(c1ccc(F)cc1)n1ccnc1-c1cc2n(n1)CCCNC2` (centres unmarked) | 11.11% & -6.965% | -6.12% |
| 11 | `N#Cc1cccc(OCc2ccoc2C(=O)N2CCCCCC2)c1` | 34.89% | 11.08% |
| 12 | `CCn1nc(C)c(C(C)NC(=O)c2cnc(N(C)C)nc2C)c1C` (centres unmarked) | -6.24% & 4.07% | -7.935% |
| 13 | `CC1CCCN(c2ccc(C(N)=O)cc2NC(=O)CC2=CCNCC2)C1` (centres unmarked) | 56.22% | 1.976% |
| 14 | `CC(NC(=O)C1CC1)c1cc(O)nc(-c2cccnc2)n1` (centres unmarked) | -1.749% | -1.92% & 0.5607% |
| 15 | `c1cc(-c2cscn2)cc(N2CCC(NCCc3cccs3)CC2)c1` | 28.42% | 9.784% |
| 16 | `Cc1cc(C)n(CC2CCCCN2CCCS(N)(=O)=O)n1` (centres unmarked) | -21.26% | -27.07% |
| 17 | `CC(C)c1n[nH]c(C2CN(C(=O)c3csnn3)CCO2)n1` (centres unmarked) | 15.85% | -10.95% |
| 18 | `CC(C)N1CCC2(CC1)C[C@@H](O)[C@H](c1ccccc1)NC2=O` | -21.38% | -4.858% |
| 19 | `Cc1ccc(-n2ncc(C(=O)NCC3CCS(=O)(=O)C3)c2C)cc1` (centres unmarked) | 24.56% | 6.567% |
| 20 | `Cc1ccsc1C(=O)N1CCCn2nnc(Cn3cccn3)c2C1` | 27.83% | 1.429% |
| 21 | `CN(C)C(CNC(=O)c1cccc(C(N)=O)c1)c1ccccc1Cl` (centres unmarked) | 6.927% | 1.021% |
| 22 | `Cc1nc(C)n(C2CCCN(C(=O)c3cn4cccnc4n3)C2)n1` (centres unmarked) | 9.72% | -10.41% |
| 23 | `CC(C(=O)N1CCC(Nc2cccnn2)CC1)n1cccn1` (centres unmarked) | 29.77% & -36.12% | -24.17% |
| 24 | `CC(C)c1ccc(CCC(=O)N(C)C2CCN(C)C2=O)cc1` (centres unmarked) | 5.243% | -1.226% |
| 25 | `O=C(O)CCc1cc2n(n1)CCN(Cc1cnc(N3CCCC3)nc1)C2` | -41.66% | 0.7141% & -0.2448% |
| 26 | `[H][C@]12CCN(S(=O)(=O)c3cccs3)C[C@@]1([H])OCCN(C(C)=O)C2` | 12.83% | -9.04% |
| 27 | `Cc1nccc(-c2ccccc2)c1C(=O)N1CCC2(CC(=O)NC2=O)C1` (centres unmarked) | 3.681% | -16.73% |
| 28 | `O=C(O)Cc1cccc(-n2ccnc2-c2ccc(Cl)s2)c1` | 23.12% | 9.526% |
| 29 | `FC(F)(F)COCCN1CCOC(Cn2cccn2)C1` (centres unmarked) | -26.13% | -20.21% |
| 30 | `COc1cccc([C@@H]2CCN(Cc3ccc4ccccc4n3)C[C@H]2O)c1` | 14.54% | -4.263% |
| 31 | `COc1cc(CNC(C)Cn2cccn2)cc(Cl)c1OC.Cl` (centres unmarked) | 13.08% | 8.861% |
| 32 | `Cc1cc(OC(F)F)c(C(=O)N2CC[C@H](O)C2)s1` | -14.18% & -3.987% | -30.77% |
| 33 | `Cc1noc(C(C)C)c1C(=O)NCCCN1CCCC1` | 14.37% | 1.253% |
| 34 | `CN(CC(=O)NC(N)=O)CC1(c2ccc(Br)cc2)CC1` | 9.219% | 5.123% |
| 35 | `CN1C[C@@H](NC(=O)C(C)(C)C)C[C@H]1C(=O)NCc1ncc[nH]1` | -0.6438% & 0.9445% | -2.897% & -3.942% |
| 36 | `Cc1cc(C(C)(O)CNC(=O)CCn2ccnc2C(C)C)c(C)o1` (centres unmarked) | -26.52% | -14.99% |
| 37 | `CC(C)CCN1CCN(C(=O)c2c[nH]nn2)CC1` | -34.94% & -2.917% | -2.379% |
| 38 | `COc1ccc(CN2CCC(c3nnc(-c4scnc4C)o3)CC2)cc1` | 8.861% | -6.183% |
| 39 | `CC(C)n1nc2c(cc1=O)CN(c1ncnc3ccccc13)CC2` | -10.7% | 2.648% |
| 40 | `Cc1cccc(CN2CCC3(CCCN(C(=O)c4ccoc4)C3)C2=O)n1.O=C(O)C(F)(F)F` (centres unmarked) | -11.81% & -16.08% | -2.82% & -22.21% |
| 41 | `CC(C)(C)n1nc(C2CC2)cc1C(=O)NCC1(C(N)=O)CCOCC1` | -1.145% | -17.43% |
| 42 | `Cc1cc(CC(=O)NC2CCCN(c3ccccc3Cl)C2=O)n[nH]1` (centres unmarked) | 2.541% | 0.4209% |
| 43 | `COc1cccn(CC(=O)N2CCCC3(CCOCC3)C2)c1=O` | -7.461% | -13.18% |
| 44 | `CN1CCN(CC[C@@H]2CC[C@H](O)[C@@H](C(=O)Nc3ccccc3)O2)CC1` | 13.61% & 9.191% | -8.128% |
| 45 | `O=C(O)C(F)(F)F.[H][C@@]12COC[C@]1(CNC(=O)N1CCCC1)CN(Cc1nccs1)C2` | 6.864% | 3.436% |
| 46 | `CNC(=O)CCc1cc(C2CCN(c3cnccn3)CC2)nc(C)n1` | -19.6% | -6.52% & 1.717% |
| 47 | `NC(=O)CCSCc1cc(Br)cc2cccnc12` | 39.63% | -38.25% |
| 48 | `O=C(NCC1CC1)C1CN(C(=O)c2cccnc2)CC12CCOCC2` (centres unmarked) | 24.26% | 16.08% |
| 49 | `O=C(NC1CCCC1)N1CCC2(CC1)CC(Oc1cccnc1)CO2` (centres unmarked) | -41.49% | -25.06% |
| 50 | `O=C(Cc1cccc(O)c1)N1CCCC(O)(CN2CCOCC2)CC1` (centres unmarked) | -21.45% | -14.35% |
| 51 | `Cc1ccc(CNCCC(O)(c2nccn2C)C(F)(F)F)o1` (centres unmarked) | -2.73% & 20.68% | 14.9% |
| 52 | `O=C(CCc1ccccn1)NCC(O)c1ccc(Cl)cc1Cl` (centres unmarked) | 24.13% | 1.636% |
| 53 | `NC(=O)CSCC(=O)NC1(c2cccc(Br)c2)CC1` | -34.79% & -2.561% | -26.71% |
| 54 | `CC(=O)NCC(=O)N1CCc2nc(-c3ccccc3)nc(C)c2CC1` | 5.165% & 52.34% | 24.32% |
| 55 | `CCc1nc(C2CCCN(C(=O)c3ccc(Cl)cc3)C2)no1` (centres unmarked) | 15.54% | 27.4% |
| 56 | `CS(=O)(=O)NC1(CCc2ccc(NC(=O)C3CC3)nc2)CCCCC1` | -13.54% | -21.79% |
| 57 | `Cc1cc(C(=O)N2CCN(C(=O)CCC3CCCCC3)CC2)n(C)n1` | 7.962% & 1.825% | -2.218% |
| 58 | `COc1ccc(CNC(=O)Nc2cccnc2N2CCCC2)cc1OC` | 11.67% | -15.9% |
| 59 | `c1cncc(-c2noc(CCNc3ncnc4c3CCNCC4)n2)c1` | 24.62% | 19.2% |
| 60 | `O=C(NCCc1cc2nc(-c3ccncc3)ccn2n1)C1CC1` | -3.76% | 13.33% & 7.839% |
| 61 | `O=C([C@H]1CCCO1)N1CCC2(CCCN(CCOc3ccccc3)C2)C1` (some centres unmarked) | -32.68% | -3.498% & -10.04% |
| 62 | `CC(=O)Nc1cccc2c1ccn2CC(=O)Nc1nc[nH]n1` | -1.873% | -1.383% |
| 63 | `CC(=O)Nc1ccc(CNc2cccc(OCCF)c2)cc1` | 20.77% | 9.512% |
| 64 | `CCc1nc(CCNC(=O)C2CC2)sc1C` | -6.95% | -13.4% |
| 65 | `CCc1ncc2c(n1)CN(CC(=O)Nc1ccc(Cl)cn1)CC2` | -2.12% | -2.138% |
| 66 | `CCN1CCN(C[C@@H]2CN(c3ncc(Cl)cc3Cl)C[C@@H]2CO)CC1` | 33.64% | 25.38% |
| 67 | `CN1CCN(Cc2cccc(C#N)c2)Cc2cccnc21.O=C(O)C(F)(F)F.O=C(O)C(F)(F)F` | -2.473% | 16.64% |
| 68 | `Cc1ccc(CN2CC[C@H](c3nnc(-c4ccco4)o3)C2)cc1` | 8.48% & 30% | 19.01% |
| 69 | `CC(C)(C)OC(=O)N1CCCC[C@H]1C(=O)NCc1nccs1` | 17.07% | 11.17% |
| 70 | `[H][C@]12CC[C@]([H])(CN(Cc3[nH]cnc3C)C1)N(Cc1cccc(C)n1)C2` | 54.3% & -2.152% | 10.89% |
| 71 | `COC(=O)c1cc(OCC2CCC2)cc(C(=O)NCC(C)(C)O)c1` | 35.66% | -11.54% |
| 72 | `CN1Cc2ccccc2CC2(CCN(C(=O)N3CCOCC3)CC2)C1=O` | -33.93% | -25.35% |

Once more, the final 6:

structure,Mtb glucose medium,Mtb cholesterol medium
CN1CCN(Cc2cccc(C#N)c2)Cc2cccnc21.O=C(O)C(F)(F)F.O=C(O)C(F)(F)F,-2.473%,16.64%
Cc1ccc(CN2CC[C@H](c3nnc(-c4ccco4)o3)C2)cc1,8.48% & 30%,19.01%
CC(C)(C)OC(=O)N1CCCC[C@H]1C(=O)NCc1nccs1,17.07%,11.17%
[H][C@]12CC[C@]([H])(CN(Cc3[nH]cnc3C)C1)N(Cc1cccc(C)n1)C2,54.3% & -2.152%,10.89%
COC(=O)c1cc(OCC2CCC2)cc(C(=O)NCC(C)(C)O)c1,35.66%,-11.54%
CN1Cc2ccccc2CC2(CCN(C(=O)N3CCOCC3)CC2)C1=O,-33.93%,-25.35%